Source: patent US6551793B1, “Carotenoid-associated proteins useful for high carotenoid accumulation and production in plants and other organisms” (Yissum Research Development Company of the Hebrew …, priority 1996, dated 2003)

Test system: cucumber corollas
Assay: Total protein content and fresh weight of in vitro cultured corollas
Type: cell-based, Cucumis sativus

SMILES	Difference in fresh weight or total protein level between treated and control corollas (GA3, up to 24 hours in culture)	Change in total protein content of corollas (GA3, within 6 hours of treatment)	Total protein content of treated corollas, lower than control untreated corollas (ethylene, 72 hours)
C=C1C[C@]23C[C@@]1(O)CC[C@H]2[C@@]12C=C[C@H](O)[C@@](C)(C(=O)O1)[C@H]2[C@@H]3C(=O)O [GA3, Gibberellin A3]	No difference	No change	
C=C [ethylene]			50%
